# Measurements reported in the supplement of paper PMC10735217.
# Where “and” joins values, the source holds several entries; their conditions need not be identical. Identical values can stand only once. Counter-ions that a name gives are not always drawn. Some of the results follow. Single values are uncertain here, since repeats match poorly.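 In a drug-repurposing library screen, luminescence reads luciferase driven by eight TEAD-binding elements, stably integrated into human kidney-derived cells. Compounds scoring over five robust Z scores above the plate mean are called hits.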
# System: HEK293A TEAD-LUC reporter
# Test: TEAD-luciferase reporter activity (YAP activation), robust Z score vs plate; higher = stronger YAP/TEAD activation
# Settings: 24 h
Compound,TEAD-luciferase reporter activity (compound concentration: 200 nM),TEAD-luciferase reporter activity (compound concentration: 2 uM),TEAD-luciferase reporter activity (compound concentration: 10 uM)
Cc1nc2n(c(=O)c1CCN1CCC(C(=O)c3ccc(F)cc3)CC1)CCS2,inactive: 0.389,inactive: 0.381,inactive: -0.921
CCCCC[C@H](O)/C=C/C=C\C/C=C\C/C=C\CCCC(=O)O,inactive: -0.988,–,inactive: 0.406
CCCCC[C@H](O)/C=C/C=C\C/C=C\C/C=C\CCCC(=O)O [Icomucret],–,inactive: -1.04,–
C(=N\NC1=NCCN1)/c1c2ccccc2c(/C=N/NC2=NCCN2)c2ccccc12 [bisantrene HCl],–,inactive: 4.95,–
"C(=N\NC1=NCCN1)/c1c2ccccc2c(/C=N/NC2=NCCN2)c2ccccc12 [bisantrene HCl, Update Pharma]",inactive: -0.69,–,inactive: 4.17
CN(Cc1ccc(F)cc1)C1CCc2ccccc21 (centres undefined),inactive: -2.65,–,inactive: 0.767
Clc1ccc([C@]2(Cn3cncn3)O[C@H]2c2ccc(Cl)cc2Cl)cc1,inactive: -0.404,inactive: -0.0356,inactive: 1.53
CCC(=O)N1Cc2ccccc2CC2(CCCCN2C)C1 (centres undefined),inactive: 2.79,–,inactive: 1.94
O=C(NCCc1ccccc1)c1c[nH]c2ncccc12,inactive: 0.958,–,inactive: 1.37
C/C(=N\O)c1nc([C@@H](O)[C@H](O)[C@H](O)CO)c[nH]1,inactive: 4.06,inactive: -0.372,inactive: -0.493
CC(C)(C)c1cc(/C=C2\SC(N)=NC2=O)cc(C(C)(C)C)c1O,inactive: -1.47,inactive: -1.34,inactive: -0.642
O=C(NC1CCN(c2nc3ncccc3o2)CC1)c1ccccc1,inactive: 0.572,–,inactive: -0.00848
O=c1c2c([nH]c3ccccc13)C(c1ccc3c(c1)CCO3)N(c1ccccn1)C2 (centres undefined),inactive: -1.31 and inactive: -1.5,inactive: -0.486 and inactive: -0.711,inactive: -1.58 and inactive: 1.86
CC(c1cccs1)N(C)CC1CCCCC1 (centres undefined),inactive: -1.07,–,inactive: 0.936
Fc1ccc2c(c1)OCc1ccccc1C2N1CCN(C/C=C/c2ccccc2)CC1 (centres undefined),inactive: -0.54,inactive: 0.0752,inactive: 1.5
C1=Cc2cccc(OCC3CNCCO3)c2C1 (centres undefined),inactive: -1.08,inactive: -1.09,inactive: 2.12
NC(=O)NS(=O)(=O)c1ccc(N)cc1,inactive: 1.09,inactive: -0.665,inactive: -0.312
C/C(=C\C(=O)OCCCCCCCCC(=O)O)C[C@@H]1OC[C@H](C[C@@H]2O[C@H]2[C@@H](C)[C@H](C)O)[C@@H](O)[C@H]1O [Mupirocin],active: 7.84,inactive: -1.9,inactive: 0.0893
CC(=O)N1CCCN(C(=O)c2cnc3cc(C)nn3c2)CC1,inactive: -2.63,–,inactive: 0.298
OC(CI)CI,inactive: -0.0835,inactive: -0.644,inactive: -0.732
O=C1CC[C@H](C(=O)N[C@@H]2C[C@H]2c2ccccc2)N1,inactive: -1.37,inactive: -0.275,inactive: -1.13
CCN1CCC[C@H]1CNC(=O)c1cc(S(N)(=O)=O)ccc1OC,inactive: 0.102,–,inactive: 1.22
CCN1CCC[C@H]1CNC(=O)c1cc(S(N)(=O)=O)ccc1OC [levosulpiride],–,inactive: -1.03,–
CC1(C)OC(c2ccc(S(N)(=O)=O)cc2)=C(c2cccc(F)c2)C1=O [Polmacoxib],inactive: 0.206,inactive: 0.503,inactive: 0.782
CN(C)[C@@H]1C(O)=C(C(N)=O)C(=O)[C@@]2(O)C(O)=C3C(=O)c4c(O)ccc(Cl)c4[C@@](C)(O)C3C[C@@H]12 (some centres undefined) [Chlortetracycline HCl],inactive: -0.0898,inactive: -0.0875,inactive: 2.28
C[C@@H](NCCCc1cccc(C(F)(F)F)c1)c1cccc2ccccc12 [cinacalcet hydrochloride],inactive: -1.82,inactive: -0.602,inactive: -3.61

Compound,TEAD-luciferase reporter activity (compound concentration: 200 nM),TEAD-luciferase reporter activity (compound concentration: 2 uM),TEAD-luciferase reporter activity (compound concentration: 10 uM)
CCOC(=O)CN1CCN(C(=O)/C=C/c2cc(OC)c(OC)c(OC)c2)CC1 [cinepazet],inactive: -1.72,inactive: 0.78,inactive: 3.43
CCCCc1c(Cc2ccc(-c3ccccc3-c3nnn[nH]3)cc2)c(O)nc2ncnn12,inactive: -0.738,inactive: 1.48,inactive: 0.314
CC1=C2N=C(C=C3N=C(C(C)=C4[C@@H](CCC(N)=O)[C@](C)(CC(N)=O)[C@](C)(C5N=C1[C@](C)(CCC(=O)NCC(C)OP(=O)([O-])OC1C(CO)OC(n6cnc7cc(C)c(C)cc76)C1O)[C@H]5CC(N)=O)[N]4[Co][OH])[C@@](C)(CC(N)=O)[C@@H]3CCC(N)=O)C(C)(C)[C@@H]2CCC(N)=O (some centres undefined),inactive: 0.261,inactive: 1.62,inactive: -0.191
COc1cc(/N=N/c2c(S(=O)(=O)[O-])cc3cc(S(=O)(=O)[O-])cc(NC(=O)c4cccc(Cl)c4Cl)c3c2O)c(OC)cc1/N=N/c1c(S(=O)(=O)[O-])cc2cc(S(=O)(=O)[O-])cc(NC(=O)c3ccc(Cl)cc3Cl)c2c1O,inactive: 1.14,inactive: -0.897,inactive: -0.0646
CC(C)(C)CN1CCCC12Cc1ccccc1CNC2=O (centres undefined),inactive: 1.37,–,inactive: -1.69
Nc1ccc(F)cc1NC(=O)c1ccc(CNC(=O)/C=C/c2cccnc2)cc1,inactive: 2.34,–,active: 25.2
Nc1ccc(F)cc1NC(=O)c1ccc(CNC(=O)/C=C/c2cccnc2)cc1 [Chidamide],–,active: 16.1,–
CN(C)CCCSc1ccccc1NC(=O)/C=C/c1ccccc1 [Cinanserin],inactive: -1.7,–,inactive: -0.889
CN(C)CCCSc1ccccc1NC(=O)/C=C/c1ccccc1,–,inactive: -2.63,–
COC1CCN(C(=O)c2cc(C=C3NNC(=O)c4ccccc43)ccc2F)CC1,inactive: -1.41,inactive: 1.6,inactive: -1.35
C[C@]12CC[C@H](O)CC1=CC[C@@H]1[C@@H]2CC[C@]2(C)C(n3cnc4ccccc43)=CC[C@@H]12 [galeterone],inactive: 3.66,inactive: 0.802,inactive: -0.519
Cc1ccc(C(=O)OCc2ccc(C(CN)C(=O)Nc3ccc4cnccc4c3)cc2)c(C)c1 (centres undefined),inactive: -0.474,inactive: 0.686,inactive: 0.738
CCCC[C@H](NC(=O)[C@H](CCCC)NC(=O)[C@H](CCCC)NC(=O)[C@H](CCCNC(=N)N)NC(=O)[C@H](CCCC)NC(=O)[C@H](CCCC)NC(=O)[C@H](CCCC)NC(=O)[C@@H](N)CCCNC(=N)N)C(=O)NCC(=O)N[C@@H](Cc1ccc(O)cc1)C(N)=O,inactive: 0.00725,inactive: 1.13,inactive: 1.11
CNS(=O)(=O)CC1CCC(N(C)c2ncnc3[nH]ccc23)CC1 (centres undefined) [Oclacitinib],inactive: 1.18,inactive: 1.66,inactive: 0.26
COC(=O)C1CSC(c2ncccc2O)=N1 (centres undefined),inactive: -0.631,inactive: 0.401,inactive: -0.191
CC[C@H](CC#N)OC(=O)N[C@@H](C)c1cccc(NC(=O)Nc2ccc(-c3cnco3)c(OC)c2)c1,inactive: -0.849,inactive: -0.81,inactive: 1.12
COc1ccc(C(C)(C)C)cc1[C@](O)(c1ccccc1OCC(N)=O)[C@@H](C)N(C)C,inactive: 0.217,inactive: -0.224,inactive: 0.626
CCN1CCC(Oc2c(C#N)ncc3[nH]c4ncccc4c23)CC1,inactive: -1.01,inactive: -0.792,inactive: 2.09
CCCCCCCCCCCCOS(=O)(=O)[O-] [Sodium lauryl sulfate],inactive: 0.854,inactive: -0.681,inactive: -0.222
CN(C)c1cccc(F)c1C(=O)NC(=O)Nc1ccc(Cl)cc1 [Clanfenur (INN)],inactive: -1.3,inactive: -0.254,inactive: 0.101
O=C(Nc1ccc(C2CCN([C@H](C(=O)O)c3ccccc3)CC2)cc1)c1ccccc1-c1ccc(C(F)(F)F)cc1 [metabolite of Usistapide],inactive: 0.0861,inactive: -1.84,inactive: 1.32
CCCCCOc1ccc(-c2ccc(-c3ccc(C(=O)NC4CC(O)C(O)NC(=O)C5C(O)C(C)CN5C(=O)C(C(C)O)NC(=O)C(C(O)C(O)c5ccc(O)cc5)NC(=O)C5CC(O)CN5C(=O)C(C(C)O)NC4=O)cc3)cc2)cc1 (centres undefined) [anidulafungin],inactive: 0.0789,inactive: -1.23,inactive: -1.04
"CCCCC[C@H](O)/C=C/[C@@H]1[C@H]2C/C=C\CCCC(=O)O[C@H]2C[C@H]1O [Prostaglandin F2? 1,9-lactone]",inactive: -2.05,inactive: -0.601,inactive: 0.651
Cc1cccc(C)c1N(CC(=O)Nc1ccc(-c2ncon2)cc1)C(=O)C1CCS(=O)(=O)CC1,inactive: -1.68,inactive: 1.15,inactive: 1.08
NS(=O)(=O)OC[C@H]1C[C@@H](Nc2ccnc3cc(-c4cccc(SC(F)(F)F)c4)nn23)[C@H](O)[C@@H]1O,inactive: -3.02,inactive: -3.46,inactive: -3.83
CC(=O)OCC1=C(C(=O)O)N2C(=O)[C@@H](NC(=O)CSc3ccncc3)[C@H]2SC1,inactive: -1.11,inactive: -0.509,inactive: 0.0785
